Test results published in publication PMC4978723.
Results are given in words; binding and its absence hold for the method and conditions named. Binding seen in cells or lysates may run through a third protein. Some results given as binding are weak or reduced against the parent protein; the word gives no strength. Sequences can lack the tags named with a protein. Each block holds one molecule with its values, some of them ahead of it.

Protein sequences, listed by entry. Tags and fused reporters are not part of them. Lines headed by an entry give the natural chain unless they say otherwise; changes in a name come on top. Residues count along the entry.
UniProt P11275: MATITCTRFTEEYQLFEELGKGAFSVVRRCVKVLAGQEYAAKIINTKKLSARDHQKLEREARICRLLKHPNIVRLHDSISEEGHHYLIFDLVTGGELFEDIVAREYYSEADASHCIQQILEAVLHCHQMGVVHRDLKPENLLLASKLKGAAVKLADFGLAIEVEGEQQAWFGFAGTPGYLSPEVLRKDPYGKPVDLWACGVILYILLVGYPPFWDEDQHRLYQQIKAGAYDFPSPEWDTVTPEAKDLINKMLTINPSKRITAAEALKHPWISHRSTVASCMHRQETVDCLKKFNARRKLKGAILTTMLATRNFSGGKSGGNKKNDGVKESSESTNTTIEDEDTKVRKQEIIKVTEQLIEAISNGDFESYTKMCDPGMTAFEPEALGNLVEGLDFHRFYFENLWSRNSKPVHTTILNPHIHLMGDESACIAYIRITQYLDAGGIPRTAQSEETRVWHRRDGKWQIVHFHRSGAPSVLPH
UniProt Q00960, residues 840-1482: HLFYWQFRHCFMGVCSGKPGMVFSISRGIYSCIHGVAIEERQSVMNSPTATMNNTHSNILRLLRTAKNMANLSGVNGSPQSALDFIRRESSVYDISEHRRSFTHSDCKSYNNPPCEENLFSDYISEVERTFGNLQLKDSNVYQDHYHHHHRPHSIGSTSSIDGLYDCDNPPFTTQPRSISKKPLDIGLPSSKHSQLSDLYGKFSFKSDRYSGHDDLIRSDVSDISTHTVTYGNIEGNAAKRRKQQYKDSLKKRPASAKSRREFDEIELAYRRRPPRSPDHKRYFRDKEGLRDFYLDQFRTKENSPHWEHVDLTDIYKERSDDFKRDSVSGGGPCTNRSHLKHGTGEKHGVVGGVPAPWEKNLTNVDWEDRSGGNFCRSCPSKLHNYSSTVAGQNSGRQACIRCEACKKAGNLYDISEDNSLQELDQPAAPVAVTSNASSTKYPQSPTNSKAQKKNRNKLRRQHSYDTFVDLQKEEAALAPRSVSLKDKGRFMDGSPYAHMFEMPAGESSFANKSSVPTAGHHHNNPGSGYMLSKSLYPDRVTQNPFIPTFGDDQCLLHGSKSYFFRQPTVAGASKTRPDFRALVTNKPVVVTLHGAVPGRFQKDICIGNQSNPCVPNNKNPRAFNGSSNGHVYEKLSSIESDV

Key:
[1] = molecular target: T1, GFP tagged rat Jacob (WT-Jacob-GFP) (rat) (UniProt Q9EPI6); assay: co-IP; heterologous co-IP from co-transfected HEK293T cells, 24 h after transfection; RIPA buffer (10 mM Tris-HCl pH 7.4, 150 mM NaCl, 1% sodium deoxycholate, 0.1% SDS, 1% Triton X-100); GFP-tagged bait precipitated with anti-GFP MicroBeads for 1 h; tagRFP-tagged prey detected by western blot with anti-tagRFP
T1 sequence: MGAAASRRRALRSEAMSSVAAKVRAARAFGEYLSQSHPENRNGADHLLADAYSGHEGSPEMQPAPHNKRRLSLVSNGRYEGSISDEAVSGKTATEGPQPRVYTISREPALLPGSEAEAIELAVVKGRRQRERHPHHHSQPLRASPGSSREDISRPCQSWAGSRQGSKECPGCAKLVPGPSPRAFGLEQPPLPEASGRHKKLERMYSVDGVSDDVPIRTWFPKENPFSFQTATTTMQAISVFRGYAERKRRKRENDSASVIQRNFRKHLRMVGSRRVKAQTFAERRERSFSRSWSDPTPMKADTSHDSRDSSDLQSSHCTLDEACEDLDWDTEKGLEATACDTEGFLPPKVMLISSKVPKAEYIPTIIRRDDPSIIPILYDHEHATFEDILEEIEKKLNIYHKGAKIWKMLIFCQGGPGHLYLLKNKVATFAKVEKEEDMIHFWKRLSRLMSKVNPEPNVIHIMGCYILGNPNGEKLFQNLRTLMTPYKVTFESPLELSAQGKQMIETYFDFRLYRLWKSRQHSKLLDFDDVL

Rat GFP-CaMKII-α (rat) = Rat GFP-CaMKII-α (rat) (UniProt P11275); assay: as above

binding [1]: binds
Molecule: N-terminal deletion mutant of rat GluN2B NMDAR subunit (GluN2B-840-1482-tagRFP) (from UniProt Q00960 840-1482) (domain or fragment)

binding [1]: binds
Molecule: Rat tagRFP-CaMKII-α (from UniProt P11275 1-478) (enzyme)

binding (Rat GFP-CaMKII-α (rat)): binds
B1: WT-Jacob-tagRFP (protein, UniProt Q9EPI6 1-532)
chain: T1 sequence
